Measured values as given in US6855507B2, “Method of screening for pharmaceuticals by detecting cross talk between intracellular signals and intranuclear receptors” (Chugai Seiyaku Kabushiki Kaisha, priority 1998, dated 2005).
For at least one compound, name, drawing or mass did not settle the structure.

Test system: retinoic acid receptor (RAR)
Assay: CAT reporter transcription activity via RAR, with/without constitutively active TGF-β type I receptor (TβRI-TD)
Assay type: cell-based
Conditions: COS-1 cells, pSG5-RAR, FIG. 1

Q: `CC1=C(/C=C/C(C)=C/C=C/C(C)=C/C(=O)O)C(C)(C)CCC1` [retinoic acid] was tested. Which “transcription activity (CAT) made by addition of the ligand via RAR: effect of signal from TGF-β” value did it give?
A: slightly reinforced
